Some entries share one result that the patent states for a list of compounds.
Test system: immunophilins (CypB or FKBP)
Test: binding of immunophilins by carrier-fixed ligands (SDS-PAGE with cell homogenate)
Conditions: carrier-fixed form

Row | Structure (SMILES) | binding of immunophilins by carrier-fixed ligands
1 | COC(=O)[C@H](CCCCNC(=O)OC(C)(C)C)NC(=O)C1Cc2ccccc2N1C(=O)C1CCN(C(=O)OC(C)(C)C)CC1 (stereo partly drawn) [Example 1, N-[1-Boc-piperidyl-4-carbonyl]indoline-2-(R,S)-carboxylic acid [S-(N-ε-Boc)lysinemethyl ester]amide] | strongly binding immunophilin modulators
2 | COC(=O)[C@H](CCCCNC(=O)OCc1ccccc1)NC(=O)C1Cc2ccccc2N1C(=O)OC(C)(C)C (stereo partly drawn) [Example 6, 1-Boc-indoline-2-(R,S)-carboxylic acid [S-(N-ε-Z)lysinemethyl ester]amide] | strongly binding immunophilin modulators
3 | COC(=O)[C@H](CCCCN)NC(=O)C1Cc2ccccc2N1C(=O)C1CCNCC1 (stereo partly drawn) [Example 2, N-[piperidyl-4-carbonyl]indoline-2-(R,S)-carboxylic acid [S-(ε-NH2)lysinemethyl ester]amide] | strongly binding immunophilin modulators
4 | COC(=O)[C@H](CCCCNC(=O)OC(C)(C)C)NC(=O)C1Cc2ccccc2N1C(=O)C1Cc2ccccc2N1C(=O)OC(C)(C)C (stereo partly drawn) [Example 3, N-[1-Boc-indoline-2-(R,S)-carbonyl]indoline-2-(R,S)-carboxylic acid [S-(N-ε-Boc)lysinemethyl ester]amide] | strongly binding immunophilin modulators
5 | CC(C)(C)OC(=O)N1c2ccccc2CC1C(=O)Nc1ccncc1 (racemic) [Example 10] | strongly binding immunophilin modulators
6 | COC(=O)[C@H](CCCCN)NC(=O)C1Cc2ccccc2N1C(=O)C1Cc2ccccc2N1 (stereo partly drawn) [Example 4, N-[indoline-2-(R,S)-carbonyl]indoline-2-(R,S)-carboxylic acid [S-(ε-NH2)lysinemethyl ester]amide] | strongly binding immunophilin modulators
7 | CC(C)(C)OC(=O)N1c2ccccc2CC1C(=O)N1CCN(CC(=O)N2CCOCC2)CC1 (racemic) [Example 11, N-Boc-indoline-2-(R,S)-carboxylic acid (piperazinoacetic acid morpholide)amide] | strongly binding immunophilin modulators
8 | CC(C)(C)OC(=O)N1CCC(C(=O)N2c3ccccc3CC2C(=O)N2CCN(CC(=O)N3CCOCC3)CC2)CC1 (racemic) [Example 12, N-[1-Boc-piperidyl-4-carbonyl]indoline-2-(R,S)-carboxylic acid (piperazinoacetic acid morpholide)amide] | strongly binding immunophilin modulators
9 | COC(=O)[C@H](Cc1ccccc1)NC(=O)C1Cc2ccccc2N1C(=O)OC(C)(C)C (stereo partly drawn) [Example 7, 1-Boc-indoline-2-(R,S)-carboxylic acid (S-phenylalanine methyl ester)amide] | strongly binding immunophilin modulators
10 | COC(=O)[C@H](CCCCNC(=O)OCc1ccccc1)NC(=O)C1Cc2ccccc2N1C(=O)C1Cc2ccccc2N1C(=O)OC(C)(C)C (stereo partly drawn) [Example 5, N-[1-Boc-indoline-2-(R,S)-carbonyl]indoline-2-(R,S)-carboxylic acid [S-(N-ε-Z)lysinemethyl ester]amide] | strongly binding immunophilin modulators
11 | COC(=O)[C@H](CCCCNC(=O)OCc1ccccc1)NC(=O)C1Cc2ccccc2N1C(=O)C1CCN(C(=O)Cc2ccc(OC)cc2)CC1 (stereo partly drawn) [Example 13, N-[N'-(4-methoxyphenylacetyl)piperidyl-4-carbonyl]indoline-2-(R,S)-carboxylic acid [S-(N-ε-Z)lysinemethyl ester]amide] | strongly binding immunophilin modulators
